PubChem BioAssay AID1259405 – NCATS | 2018
This is an unselected part of about 50,000 reagents tested. About 4,000 of them (8%) were called active. 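Mouse siRNA library applied to hamster cells; one well for each siRNA.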 A number with no mark means an inactive call. The numbers tell different reagents against one gene apart.

Screen: 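Mouse-designed siRNAs used to find CHO productivity engineering targets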 (primary screen)
Cells: Chinese hamster CHO-K1 ovary cells with stable secreted eGFP expression
Knock-down reagent: single siRNA against mouse genes, 0.8 pmol siRNA per well (2 µl of 400 nM stock)
Timing: 3 days
Measurement: 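Percent of the per-plate non-targeting control median for intracellular GFP per well by laser scanning cytometry and for cell viability by ATP luminescence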
Scale: GFP, % of control: higher = more GFP per well, higher productivity; viability (ATP), % of control: higher = more viable cells (more ATP)
Hit rule: 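Called active when intracellular GFP, relative to negative control, is at or above 120%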

no.	Gene	reagent no.	GFP, % of control	viability (ATP), % of control
1	Or4d10c (GeneID 258805)	1	50	74.1
2	Or4d10c (GeneID 258805)	2	103	94.2
3	Or4d10c (GeneID 258805)	3	78.4	111
4	Smad6 (GeneID 17130)	1	59.6	65
5	Smad6 (GeneID 17130)	2	73.3	61.6
6	Smad6 (GeneID 17130)	3	80.2	102
7	Mars2 (GeneID 212679)	1	75.8	88.5
8	Mars2 (GeneID 212679)	2	103	91.6
9	Cryba1 (GeneID 12957)	1	86.9	75.2
10	Cryba1 (GeneID 12957)	2	212 (active)	96.3
11	Cryba1 (GeneID 12957)	3	102	104
12	Cryba1 (GeneID 12957)	4	83.6	93.9
13	Cryba1 (GeneID 12957)	5	103	96.7
14	Cryba1 (GeneID 12957)	6	118	92.6
15	Fads1 (GeneID 76267)	1	107	123
16	Fads1 (GeneID 76267)	2	38	44.4

In a second layout: 2 of the entries above.
Gene,reagent no.,"GFP, % of control","viability (ATP), % of control"
Fads1 (GeneID 76267),1,107,123
Fads1 (GeneID 76267),2,38,44.4

Further reagents follow.
no.	Gene	reagent no.	GFP, % of control	viability (ATP), % of control
17	Samd14 (GeneID 217125)	1	37.5	45.9
18	Samd14 (GeneID 217125)	2	66.6	91.1
19	Samd14 (GeneID 217125)	3	117	129
20	C1qtnf4 (GeneID 67445)	1	63.8	78.4
21	C1qtnf4 (GeneID 67445)	2	78.3	71.2
22	C1qtnf4 (GeneID 67445)	3	187 (active)	140
23	Hspb1 (GeneID 15507)	1	68.5	74.6
24	Hspb1 (GeneID 15507)	2	77.3	68.6
25	Hspb1 (GeneID 15507)	3	86.1	101
26	Il18bp (GeneID 16068)	1	65.4	88.4
27	Il18bp (GeneID 16068)	2	35.7	29.3
28	Il18bp (GeneID 16068)	3	41	86.9
29	Scarb2 (GeneID 12492)	1	93.1	115
30	Scarb2 (GeneID 12492)	2	52.6	56.7
31	Scarb2 (GeneID 12492)	3	89.4	73.9
32	Rnf185 (GeneID 193670)	1	74	42.6
33	Rnf185 (GeneID 193670)	2	109	71.7
34	Tmem88 (GeneID 67020)	1	75.3	59
35	Tmem88 (GeneID 67020)	2	64.3	23.1
36	Tmem88 (GeneID 67020)	3	92.3	95.7
